Assay results: patent US11497813B2, “Bortezomib conjugates and methods using same” (Frank EBETINO et al., priority 2015, dated 2022)

Tested on: osteoclasts
Experiment: Osteoclast formation and bone resorption on bone slices pre-incubated with compound
Format: cell-based, mouse
Conditions: bone slices, washed after incubation
Description: FIG. 5A is a scheme of an exemplary synthesis of compound BP-Btz1. FIG. 5B is a series of images of bone slices pre-incubated with 1 μM BP-Btz1, Btz, or bisphosphonate (BP) overnight. Drug solutions were removed and bone slices were washed with PBS extensively. […] (BM) cells from UB^G76V-GFP mice were cultured on bone slices in the presence of M-CSF and RANKL for 9 days. Top images (a): GFP^+ cells were observed under a fluorescence microscope and GFP signal intensity was quantified. Middle images (b): bone slices were fixed and subjected to TRAP staining for osteoclasts (OCs). OC #/slice were counted. Bottom images (c): cells were removed from slices. Toluidine blue staining was performed and pit areas/slice were counted. […] The ALP^+ areas were measured by Image J. *P<0.05 vs. Btz-treated cells. […]
1. […] Following proteasome inhibitor administration, Ub^G76V accumulates and GFP fluorescence is readily apparent. GFP^+ OCs were detected at 4 and 8 hrs after adding Btz to OC cultures, which disappeared at 24 hrs. […] The number and area of OCs and resorption pits are assessed. The appearance, intensity and distribution of GFP^+ cells on bone slices and plastic surrounding bone slices during OC formation is observed and recorded. […] Area of ALP^+ and mineralized bone nodule, and the expression levels of OB marker genes (ALP, osteocalcin, Runx2) are measured. […]

CC(C)C[C@H](NC(=O)[C@H](Cc1ccccc1)NC(=O)c1cnccn1)B1OCCN(CCOC(=O)NC(P(=O)(O)O)P(=O)(O)O)CCO1 [BP-Btz1]
binding to bone matrix: binds to bone matrix
